Paper PMC7585531
These are yes or no findings as the source states them, for the method shown. In cells and extracts the contact can be indirect. Some results given as binding are weak or reduced against the parent protein; the word gives no strength.

By UniProt entry, the sequences of proteins in these tests, tags left out.
UniProt D4A523: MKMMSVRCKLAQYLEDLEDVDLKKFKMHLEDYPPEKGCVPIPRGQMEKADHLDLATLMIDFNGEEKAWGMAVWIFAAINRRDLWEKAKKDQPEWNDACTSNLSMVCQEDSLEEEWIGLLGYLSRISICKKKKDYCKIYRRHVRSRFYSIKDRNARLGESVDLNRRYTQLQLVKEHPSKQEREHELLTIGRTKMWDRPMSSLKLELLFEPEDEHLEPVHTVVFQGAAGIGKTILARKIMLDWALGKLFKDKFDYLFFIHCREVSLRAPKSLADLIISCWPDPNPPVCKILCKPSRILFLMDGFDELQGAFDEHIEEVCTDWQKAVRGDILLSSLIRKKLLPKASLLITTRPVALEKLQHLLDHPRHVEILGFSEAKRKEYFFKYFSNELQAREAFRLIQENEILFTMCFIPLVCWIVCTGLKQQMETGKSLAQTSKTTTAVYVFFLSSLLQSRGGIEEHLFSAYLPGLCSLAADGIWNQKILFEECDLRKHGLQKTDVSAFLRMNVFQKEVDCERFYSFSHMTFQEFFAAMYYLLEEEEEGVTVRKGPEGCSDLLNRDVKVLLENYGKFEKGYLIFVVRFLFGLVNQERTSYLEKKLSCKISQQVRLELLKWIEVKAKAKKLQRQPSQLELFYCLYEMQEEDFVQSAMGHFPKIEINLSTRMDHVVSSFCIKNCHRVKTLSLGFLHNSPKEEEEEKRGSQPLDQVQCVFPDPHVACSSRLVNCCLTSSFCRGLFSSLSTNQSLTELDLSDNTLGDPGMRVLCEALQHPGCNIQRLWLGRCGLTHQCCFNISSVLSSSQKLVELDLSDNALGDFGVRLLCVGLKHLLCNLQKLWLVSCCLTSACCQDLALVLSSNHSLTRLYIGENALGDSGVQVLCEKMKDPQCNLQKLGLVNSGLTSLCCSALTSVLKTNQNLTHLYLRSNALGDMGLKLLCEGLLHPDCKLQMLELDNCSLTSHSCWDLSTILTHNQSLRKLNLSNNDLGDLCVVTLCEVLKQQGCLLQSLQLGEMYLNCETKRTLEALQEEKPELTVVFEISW

Biological target: T1, thioredoxin interacting protein (TXNIP) (rat (endogenous in brain tissue)) (UniProt Q5M7W1)
T1 sequence: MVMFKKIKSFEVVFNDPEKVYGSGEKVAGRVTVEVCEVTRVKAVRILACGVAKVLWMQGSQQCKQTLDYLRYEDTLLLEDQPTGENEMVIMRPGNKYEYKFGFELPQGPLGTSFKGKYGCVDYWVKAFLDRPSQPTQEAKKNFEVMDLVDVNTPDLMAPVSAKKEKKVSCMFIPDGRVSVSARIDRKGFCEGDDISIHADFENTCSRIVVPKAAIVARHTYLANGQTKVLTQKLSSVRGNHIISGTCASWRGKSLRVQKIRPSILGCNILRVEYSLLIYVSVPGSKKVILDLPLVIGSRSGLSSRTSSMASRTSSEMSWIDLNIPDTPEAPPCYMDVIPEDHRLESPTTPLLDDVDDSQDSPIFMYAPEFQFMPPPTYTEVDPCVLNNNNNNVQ
Assay: co-IP; total protein of rat brain tissue (SAH rats, with or without EGb761 20 or 40 mg/kg pre-treatment) precipitated with anti-TXNIP antibody (1:200) at 4 °C overnight and protein A/G agarose; Western blot

binding: binds
Substance: NOD like receptors pyrin domain-containing 3 (NLRP3) (from UniProt D4A523 1-1035)
